We go through one compound from PMC8217266 (Clinical Pharmacology and Therapeutics, 2021).

For this series, the system named is transporters at major organ sites. As to the kind of experiment: Prediction of transporter-mediated inhibition / DDI potential. Details: species or system human. The note with it: of 11 transporters; FDA criteria.

As to `CCS(=O)(=O)N1CC(CC#N)(n2cc(-c3ncnc4[nH]ccc34)cn2)C1` [Baricitinib], the “No. of transporters at major organ sites inhibited at clinical concentrations” value is 0.
